Literature values in patent publication US7419968B1, “Methods for treating therapy-resistant tumors” (Celmed Oncology (USA), Inc., priority 1999, dated 2008).
For at least one compound, name, drawing or mass did not settle the structure.

Target: T1, Lactobacillus casei TS (Lacticaseibacillus casei, UniProt P00469)
T1 sequence (P00469 1-316): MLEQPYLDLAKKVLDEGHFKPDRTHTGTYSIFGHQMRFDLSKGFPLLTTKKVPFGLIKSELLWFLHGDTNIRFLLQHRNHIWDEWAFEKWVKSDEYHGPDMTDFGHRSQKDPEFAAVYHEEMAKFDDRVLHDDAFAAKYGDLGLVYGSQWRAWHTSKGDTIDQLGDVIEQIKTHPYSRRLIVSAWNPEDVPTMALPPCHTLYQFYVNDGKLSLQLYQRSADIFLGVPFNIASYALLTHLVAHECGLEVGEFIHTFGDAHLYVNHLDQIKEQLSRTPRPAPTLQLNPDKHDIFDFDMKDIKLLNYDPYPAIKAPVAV
Settings: cited from earlier work

Structure (SMILES): O=c1ccn([C@H]2C[C@H](O)[C@@H](COP(=O)(O)O)O2)c(=O)[nH]1 [dUMP, Deoxguridine Monophosphate]
- Kcat/Km: 2.1e+06 M⁻¹ s⁻¹
